Experimental data published in US20020152485A1.
No constants are given. Whether binding was seen depends on the method and setting. Some results given as binding are weak or reduced against the parent protein; the word gives no strength. Where a sequence is shown, tags or fusion partners need not be part of it.

By UniProt entry, the sequences of proteins in these tests, tags left out. Residues count along the entry.
UniProt P04114, residues 28-4563: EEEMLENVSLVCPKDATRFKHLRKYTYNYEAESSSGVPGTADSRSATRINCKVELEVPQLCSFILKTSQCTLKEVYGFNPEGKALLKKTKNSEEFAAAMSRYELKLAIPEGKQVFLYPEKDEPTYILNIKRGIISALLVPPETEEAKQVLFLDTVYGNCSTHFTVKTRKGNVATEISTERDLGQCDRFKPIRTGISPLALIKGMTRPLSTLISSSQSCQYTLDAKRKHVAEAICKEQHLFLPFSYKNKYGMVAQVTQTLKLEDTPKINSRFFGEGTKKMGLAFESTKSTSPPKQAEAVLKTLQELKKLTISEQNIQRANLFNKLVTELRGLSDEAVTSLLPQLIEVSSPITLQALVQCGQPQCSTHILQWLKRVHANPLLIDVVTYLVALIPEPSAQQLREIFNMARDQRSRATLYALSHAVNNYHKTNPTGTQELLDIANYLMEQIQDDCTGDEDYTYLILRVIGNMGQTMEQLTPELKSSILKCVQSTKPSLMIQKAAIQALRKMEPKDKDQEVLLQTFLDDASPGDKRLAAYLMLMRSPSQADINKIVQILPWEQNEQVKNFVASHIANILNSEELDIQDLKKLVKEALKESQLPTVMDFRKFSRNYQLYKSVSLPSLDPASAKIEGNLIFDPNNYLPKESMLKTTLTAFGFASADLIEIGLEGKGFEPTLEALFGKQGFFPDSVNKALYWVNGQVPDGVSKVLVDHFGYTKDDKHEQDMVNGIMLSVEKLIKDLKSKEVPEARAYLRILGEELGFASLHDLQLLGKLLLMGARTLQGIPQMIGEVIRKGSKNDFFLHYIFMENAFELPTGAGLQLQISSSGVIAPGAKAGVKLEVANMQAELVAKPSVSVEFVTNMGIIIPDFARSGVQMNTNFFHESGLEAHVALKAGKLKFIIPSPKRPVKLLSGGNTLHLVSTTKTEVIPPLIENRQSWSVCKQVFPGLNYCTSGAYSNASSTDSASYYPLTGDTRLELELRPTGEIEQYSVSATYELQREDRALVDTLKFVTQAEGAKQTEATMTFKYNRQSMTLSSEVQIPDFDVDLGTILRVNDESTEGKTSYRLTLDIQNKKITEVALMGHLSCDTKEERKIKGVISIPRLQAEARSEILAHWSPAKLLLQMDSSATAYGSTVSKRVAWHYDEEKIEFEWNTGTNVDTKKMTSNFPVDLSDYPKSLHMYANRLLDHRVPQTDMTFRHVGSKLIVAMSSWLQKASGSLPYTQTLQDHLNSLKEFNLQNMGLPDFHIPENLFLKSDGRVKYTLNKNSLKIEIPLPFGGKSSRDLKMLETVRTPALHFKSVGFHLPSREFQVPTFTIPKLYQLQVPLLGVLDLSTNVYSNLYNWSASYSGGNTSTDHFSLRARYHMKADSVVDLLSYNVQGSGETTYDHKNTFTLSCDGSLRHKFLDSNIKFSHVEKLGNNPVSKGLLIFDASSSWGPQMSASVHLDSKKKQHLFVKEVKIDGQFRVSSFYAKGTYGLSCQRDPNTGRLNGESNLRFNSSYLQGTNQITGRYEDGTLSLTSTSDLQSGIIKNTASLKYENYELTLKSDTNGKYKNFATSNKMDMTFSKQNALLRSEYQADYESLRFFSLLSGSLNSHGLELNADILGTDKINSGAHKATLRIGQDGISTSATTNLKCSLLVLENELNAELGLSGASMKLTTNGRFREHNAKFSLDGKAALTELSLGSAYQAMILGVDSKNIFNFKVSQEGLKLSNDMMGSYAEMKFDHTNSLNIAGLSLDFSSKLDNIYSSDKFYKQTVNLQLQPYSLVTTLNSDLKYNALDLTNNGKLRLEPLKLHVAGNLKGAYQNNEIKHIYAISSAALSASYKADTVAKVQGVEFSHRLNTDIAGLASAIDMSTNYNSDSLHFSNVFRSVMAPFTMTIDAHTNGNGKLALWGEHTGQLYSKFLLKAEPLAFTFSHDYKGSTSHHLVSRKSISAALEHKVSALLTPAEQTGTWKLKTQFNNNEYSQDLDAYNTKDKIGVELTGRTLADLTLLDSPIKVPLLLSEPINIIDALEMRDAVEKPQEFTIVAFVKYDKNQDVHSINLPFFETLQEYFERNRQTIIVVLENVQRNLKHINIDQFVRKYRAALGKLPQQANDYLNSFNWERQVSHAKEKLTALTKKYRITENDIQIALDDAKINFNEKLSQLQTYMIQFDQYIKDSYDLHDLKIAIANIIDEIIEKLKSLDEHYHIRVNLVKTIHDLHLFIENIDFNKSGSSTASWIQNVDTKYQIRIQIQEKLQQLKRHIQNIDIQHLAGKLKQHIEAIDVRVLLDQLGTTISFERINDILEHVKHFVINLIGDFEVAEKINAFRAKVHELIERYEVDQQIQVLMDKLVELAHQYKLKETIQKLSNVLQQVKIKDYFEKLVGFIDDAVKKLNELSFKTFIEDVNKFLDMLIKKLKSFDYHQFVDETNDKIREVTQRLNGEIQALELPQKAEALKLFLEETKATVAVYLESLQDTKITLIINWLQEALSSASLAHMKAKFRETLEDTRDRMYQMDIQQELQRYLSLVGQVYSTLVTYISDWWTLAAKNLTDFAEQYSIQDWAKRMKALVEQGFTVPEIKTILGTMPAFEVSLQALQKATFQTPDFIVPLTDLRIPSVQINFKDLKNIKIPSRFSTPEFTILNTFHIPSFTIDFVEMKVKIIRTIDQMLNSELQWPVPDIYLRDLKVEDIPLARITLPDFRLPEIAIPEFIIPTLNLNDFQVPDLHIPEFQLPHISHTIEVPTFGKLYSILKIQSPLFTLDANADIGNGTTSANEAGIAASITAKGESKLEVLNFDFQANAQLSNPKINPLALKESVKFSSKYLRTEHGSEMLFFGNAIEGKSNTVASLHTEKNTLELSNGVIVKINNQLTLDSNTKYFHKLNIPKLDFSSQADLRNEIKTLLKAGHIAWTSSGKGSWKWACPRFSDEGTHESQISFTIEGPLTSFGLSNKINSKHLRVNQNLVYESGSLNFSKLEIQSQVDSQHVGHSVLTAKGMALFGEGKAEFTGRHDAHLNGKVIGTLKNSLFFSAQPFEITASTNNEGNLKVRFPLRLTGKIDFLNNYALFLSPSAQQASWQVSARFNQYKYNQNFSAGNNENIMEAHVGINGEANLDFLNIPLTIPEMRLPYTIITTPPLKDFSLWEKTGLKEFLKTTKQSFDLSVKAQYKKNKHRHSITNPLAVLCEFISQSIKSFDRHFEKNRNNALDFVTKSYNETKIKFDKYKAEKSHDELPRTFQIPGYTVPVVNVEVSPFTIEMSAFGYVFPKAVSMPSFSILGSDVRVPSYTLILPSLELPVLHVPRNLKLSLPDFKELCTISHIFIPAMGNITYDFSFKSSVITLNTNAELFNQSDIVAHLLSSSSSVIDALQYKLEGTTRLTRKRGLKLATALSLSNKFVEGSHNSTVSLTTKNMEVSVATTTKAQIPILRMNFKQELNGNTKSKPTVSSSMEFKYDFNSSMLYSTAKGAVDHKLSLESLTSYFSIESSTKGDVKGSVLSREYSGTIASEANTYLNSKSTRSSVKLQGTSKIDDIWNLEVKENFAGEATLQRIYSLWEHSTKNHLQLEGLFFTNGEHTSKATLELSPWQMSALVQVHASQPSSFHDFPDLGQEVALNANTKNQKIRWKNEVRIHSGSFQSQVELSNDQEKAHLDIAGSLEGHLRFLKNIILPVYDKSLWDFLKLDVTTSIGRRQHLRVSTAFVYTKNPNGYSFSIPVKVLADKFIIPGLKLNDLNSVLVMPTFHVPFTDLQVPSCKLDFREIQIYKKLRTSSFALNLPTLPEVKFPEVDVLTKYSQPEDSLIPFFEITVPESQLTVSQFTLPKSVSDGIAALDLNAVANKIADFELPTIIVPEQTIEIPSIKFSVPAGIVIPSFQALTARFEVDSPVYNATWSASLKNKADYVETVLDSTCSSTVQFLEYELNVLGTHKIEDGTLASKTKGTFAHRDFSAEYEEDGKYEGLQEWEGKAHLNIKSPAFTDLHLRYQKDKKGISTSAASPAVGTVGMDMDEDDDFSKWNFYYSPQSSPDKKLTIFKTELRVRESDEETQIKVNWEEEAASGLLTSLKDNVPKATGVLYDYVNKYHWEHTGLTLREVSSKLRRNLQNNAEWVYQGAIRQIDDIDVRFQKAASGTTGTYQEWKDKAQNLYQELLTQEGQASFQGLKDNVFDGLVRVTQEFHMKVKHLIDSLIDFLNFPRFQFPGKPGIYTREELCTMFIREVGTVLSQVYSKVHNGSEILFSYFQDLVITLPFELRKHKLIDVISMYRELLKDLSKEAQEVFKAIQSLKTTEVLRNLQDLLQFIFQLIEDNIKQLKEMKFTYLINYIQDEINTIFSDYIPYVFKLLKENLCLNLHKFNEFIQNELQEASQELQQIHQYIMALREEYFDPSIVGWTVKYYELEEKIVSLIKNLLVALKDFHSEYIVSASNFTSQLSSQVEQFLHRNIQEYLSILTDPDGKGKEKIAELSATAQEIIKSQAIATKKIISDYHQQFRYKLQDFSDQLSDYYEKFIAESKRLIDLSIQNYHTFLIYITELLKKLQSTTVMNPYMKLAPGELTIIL

How the values were obtained:
[1] = target: native human low density lipoprotein (LDL) (human) (UniProt P04114); assay: affinity coelectrophoresis (ACE): 125I-labeled clone 26 LBP-2 run through LDL cast in agarose
[2] = target: native human low density lipoprotein (LDL) (human) (UniProt P04114); assay: ACE self-competition: fixed cold LDL and radiolabeled LBP-2, increasing cold LBP-2
[3] = target: native human low density lipoprotein (LDL) (human) (UniProt P04114); assay: plaque-lift expression screen of a rabbit aorta cDNA phage library; membranes incubated with native human LDL (4 ug/ml), detected with sheep anti-human LDL antibodies; phage-expressed protein
[4] = target: native human low density lipoprotein (LDL) (human) (UniProt P04114); assay: ACE competition: fixed cold LDL and radiolabeled clone 26 LBP-2, increasing cold clone 26 LBP-2
[5] = target: native human low density lipoprotein (LDL) (human) (UniProt P04114); assay: affinity coelectrophoresis (ACE): 125I-LBP-2 run through LDL cast in agarose

Measured: binding

B1: recombinant rabbit LBP-2 clone 26 (6-His tag) (protein, not shown: small tags and cut ends)
chain: PPPPQQPQPPPEGGAARAGGPARPVSLREVVRYLGGSSGAGGRLTRGRVQGLLEEEAAARGRLERTRLGALALPRGDRPGRAPPAASARAARNKRAGEERVLEKEEEEEEEEDDEDDDDDVVSEGSEVPESDRPAGAQHHQLNGGERGPQTAKERAKEWSLCGPHPGQEEGRGPAAGSGTRQVFSMAALSKEGGSASSTTGPDSPSPVPLPPGKPALPGADGTPFGCPAGRKEKPADPVEWTVMDVVEYFTEAGFPEQATAFQEQEIDGKSLLLMQRTDVLTGLSIRLGPALKIYEHHIKVLQQGHFEDDDPEGFLG
modifications: 125I-iodinated (Iodobeads) where used as the radiolabeled species in ACE assays
binds: all assays above
